These are yes or no findings as the source states them, for the method shown. Some binding calls cover weakened binding; strength is not graded here.
Target: T1, fibroblast growth factor 23 (FGF23), recombinant human (human) (UniProt Q9GZV9)
T1 sequence: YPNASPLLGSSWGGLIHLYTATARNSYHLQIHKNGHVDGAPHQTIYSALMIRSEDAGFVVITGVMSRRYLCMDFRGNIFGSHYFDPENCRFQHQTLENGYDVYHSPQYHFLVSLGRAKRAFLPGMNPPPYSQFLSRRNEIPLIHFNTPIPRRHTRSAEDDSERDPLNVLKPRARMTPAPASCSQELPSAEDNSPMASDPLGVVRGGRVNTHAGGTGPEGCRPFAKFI
Experiment: SPR; array SPRi, stationary (non-fluidic); monoclonal anti-FGF23 antibody (25 ng/mL) bound covalently to a cysteamine monolayer on gold; FGF23 mixed with αKlotho (mass ratio 1:4.23) applied for 10 min, washed with HBS-ES buffer and water, dried, then read; pH 7.4; both purified

B1: αKlotho protein, recombinant human (receptor, UniProt Q9UEF7 34-981)
chain: EPGDGAQTWARFSRPPAPEAAGLFQGTFPDGFLWAVGSAAYQTEGGWQQHGKGASIWDTFTHHPLAPPGDSRNASLPLGAPSPLQPATGDVASDSYNNVFRDTEALRELGVTHYRFSISWARVLPNGSAGVPNREGLRYYRRLLERLRELGVQPVVTLYHWDLPQRLQDAYGGWANRALADHFRDYAELCFRHFGGQVKYWITIDNPYVVAWHGYATGRLAPGIRGSPRLGYLVAHNLLLAHAKVWHLYNTSFRPTQGGQVSIALSSHWINPRRMTDHSIKECQKSLDFVLGWFAKPVFIDGDYPESMKNNLSSILPDFTESEKKFIKGTADFFALCFGPTLSFQLLDPHMKFRQLESPNLRQLLSWIDLEFNHPQIFIVENGWFVSGTTKRDDAKYMYYLKKFIMETLKAIKLDGVDVIGYTAWSLMDGFEWHRGYSIRRGLFYVDFLSQDKMLLPKSSALFYQKLIEKNGFPPLPENQPLEGTFPCDFAWGVVDNYIQVDTTLSQFTDLNVYLWDVHHSKRLIKVDGVVTKKRKSYCVDFAAIQPQIALLQEMHVTHFRFSLDWALILPLGNQSQVNHTILQYYRCMASELVRVNITPVVALWQPMAPNQGLPRLLARQGAWENPYTALAFAEYARLCFQELGHHVKLWITMNEPYTRNMTYSAGHNLLKAHALAWHVYNEKFRHAQNGKISIALQADWIEPACPFSQKDKEVAERVLEFDIGWLAEPIFGSGDYPWVMRDWLNQRNNFLLPYFTEDEKKLIQGTFDFLALSHYTTILVDSEKEDPIKYNDYLEVQEMTDITWLNSPSQVAVVPWGLRKVLNWLKFKYGDLPMYIISNGIDDGLHAEDDQLRVYYMQNYINEALKAHILDGINLCGYFAYSFNDRTAPRFGLYRYAADQFEPKASMKHYRKIIDSNGFPGPETLERFCPEEFTVCTECSFFHTRKS
**Q.** B1 was tested. Which binding did it give?
**A.** binds
